The values below come from patent US20190201552.

Amino acid sequences for entries named in this document (tags omitted). Residues count along the entry.
UniProt P21860, 20-1342: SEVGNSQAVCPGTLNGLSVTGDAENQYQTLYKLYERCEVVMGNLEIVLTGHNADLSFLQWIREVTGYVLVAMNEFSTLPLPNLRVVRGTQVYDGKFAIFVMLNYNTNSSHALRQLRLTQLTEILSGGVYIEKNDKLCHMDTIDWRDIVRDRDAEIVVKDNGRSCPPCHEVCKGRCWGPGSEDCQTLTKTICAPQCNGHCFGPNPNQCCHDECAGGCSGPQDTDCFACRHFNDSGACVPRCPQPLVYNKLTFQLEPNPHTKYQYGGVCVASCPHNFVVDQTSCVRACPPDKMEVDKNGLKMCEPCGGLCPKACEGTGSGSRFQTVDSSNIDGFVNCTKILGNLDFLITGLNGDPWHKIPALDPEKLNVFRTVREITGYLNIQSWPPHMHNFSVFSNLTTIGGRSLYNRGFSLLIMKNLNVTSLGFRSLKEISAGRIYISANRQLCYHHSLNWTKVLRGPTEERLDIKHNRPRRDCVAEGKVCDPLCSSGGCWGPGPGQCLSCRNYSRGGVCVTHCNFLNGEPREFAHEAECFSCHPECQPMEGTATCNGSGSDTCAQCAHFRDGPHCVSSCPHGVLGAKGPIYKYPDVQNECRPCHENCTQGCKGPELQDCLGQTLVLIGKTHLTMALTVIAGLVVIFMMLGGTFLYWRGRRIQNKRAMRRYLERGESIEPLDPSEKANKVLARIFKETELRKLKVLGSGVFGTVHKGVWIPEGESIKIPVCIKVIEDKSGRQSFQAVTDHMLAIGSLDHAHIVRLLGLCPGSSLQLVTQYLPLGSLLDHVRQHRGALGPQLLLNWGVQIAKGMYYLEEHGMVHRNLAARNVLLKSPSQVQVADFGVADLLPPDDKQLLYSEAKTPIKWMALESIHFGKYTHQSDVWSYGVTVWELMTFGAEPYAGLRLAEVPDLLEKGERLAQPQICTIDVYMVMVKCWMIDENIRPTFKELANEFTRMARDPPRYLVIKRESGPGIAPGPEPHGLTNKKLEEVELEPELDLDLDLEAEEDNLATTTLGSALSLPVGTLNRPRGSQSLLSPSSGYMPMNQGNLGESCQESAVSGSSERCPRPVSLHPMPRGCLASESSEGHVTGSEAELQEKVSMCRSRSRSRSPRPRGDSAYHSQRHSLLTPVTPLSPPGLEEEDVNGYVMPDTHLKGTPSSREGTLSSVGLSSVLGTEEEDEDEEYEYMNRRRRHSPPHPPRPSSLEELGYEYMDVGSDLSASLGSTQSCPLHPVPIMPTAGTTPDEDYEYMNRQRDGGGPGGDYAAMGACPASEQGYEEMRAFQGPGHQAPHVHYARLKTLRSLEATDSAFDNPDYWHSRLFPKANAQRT

For part of these data: Negatives hold for the conditions tested. For part of these data: Where cells or extracts were used, other partners may take part. For part of these data: For at least one entry, the source does not settle the construct or the ends of the probe.

Data set [1] addresses HER3 (ERBB3) (Homo sapiens) (UniProt P21860). The data set is described as follows: binding assay. The conditions noted are these: 2'-F pyrimidines; CITED Kd of HER3 aptamer, method not stated (Chen et al. 2003); protein on the cell surface; protein details: endogenous on BT474 / SKBR3 cells.
Data set [2] shares this target. In words: activity in cells. The settings on record: 2'-F pyrimidines, protein on the cell surface, protein details: endogenous on BT474 / SKBR3 cells.
The target of data set [3] is HER2 (ERBB2) (Homo sapiens) (UniProt P04626). The data set is described as follows: flow cytometry. The settings on record: 2'-F pyrimidines, protein on the cell surface, protein details: endogenous on BT474 / SKBR3 cells, label: Cy5. On the technique in general: In flow cytometry, cells or beads pass a laser one at a time.
The target of data set [4] is HER3 (ERBB3) (Homo sapiens) (UniProt P21860). The data set is described as follows: flow cytometry. The settings on record: 2'-F pyrimidines; binding to BT474 reduced on HER3 knockdown; affinity comparable with single aptamers; protein on the cell surface; protein details: endogenous on BT474 / SKBR3 cells; label: Cy5.
The target in data set [5] is HER2 (ERBB2) (Homo sapiens) (UniProt P04626). The data set is described as follows: activity in cells. The conditions noted are these: 2'-F pyrimidines, HER2 protein reduced, protein on the cell surface, protein details: endogenous on BT474 / SKBR3 cells.
Data set [6] shares this target. In words: binding assay. The conditions noted are these: 2'-F pyrimidines; CITED Kd of HER2 aptamer, method not stated (Kim et al. 2011); protein on the cell surface; protein details: endogenous on BT474 / SKBR3 …; label: Cy5 (binding/uptake assays).

What is called Kd is the constant that tells how readily two partners part at equilibrium. In data set [1], “GAAUUCCGCGUGUGCCAGCGAAAGUUGCGUAUGGGUCACAUCGCAGGCACAUGUCAUCUGGGCGGUCCGUUCGGGAUCC [HER3 aptamer (79 nt)]” showed a Kd of 45 nM. Also, in data set [2] (2 uM, 72 h: viability 48% BT474, 65% SKBR3), the “functional effect of the aptamer” value is “active”.

Turning to “AGCCGCGAGGGGAGGGAUAGGGUAGGGCGCGGCUAAAACCUUAGCAGUCUUAUCUAAUU / GAAUUCCGCGUGUGCCAGCGAAAGUUGCGUAUGGGUCACAUCGCAGGCACAUGUCAUCUGGGCGGUCCGUUCGGGAUCCAAAAUUAGAUAAGACUGCUAAGGCA [H2EH3 (HER2 aptamer-EGFR siRNA-HER3 aptamer chimera)]”, the binding result in data set [3] (binding to BT474 reduced on HER2 knockdown, affinity comparable with single aptamers) was “binds”; in data set [4], “binds”.

As to “AGCCAAACGAGGGGGGAGAGGGTGGGGGCGCCTGAAAACCTTAGCAGTCTTATCTAATT / GAATTCCGCGTGTGCCAGCGAAAGTTGCGTATGGGTCACATCGCACAGGACGTTCATCTGGGCGGTCCGTTCGGGATCCAAAAUUAGAUAAGACUGCUAAGGCA [muH2EH3 (mutant HER2 and HER3 aptamer chimera)]”, the “functional effect of the aptamer” value in data set [2] (transcribed RNA, printed as DNA templates, no cytotoxicity and no reduction of HER3 in BT474/SKBR3, dose not given here) is on record as “not active”.

Consider “AGCCGCGAGGGGAGGGAUAGGGUAGGGCGCGGCUAAAACCUUAGCAGUCUUAUCUAAUU / AGCCGCGAGGGGAGGGATAGGGTAGGGCGCGGCTAAAATTAGATAAGACTGCTAAGGCA [HEH (HER2 aptamer-EGFR siRNA-HER2 aptamer chimera)]”, for which, in data set [5] (transcribed RNA, SEQ:4 is the DNA template of the second strand, 1 uM, 72 h: viability reduced 90% in SKBR3 and 85% in BT474, not in HER2-low cells, variant of HER2 aptamer (34 nt)), the “functional effect of the aptamer” value was “active”. For the same sequence, in data set [3] (transcribed RNA, SEQ:4 is the DNA template of the second strand, Cy5-HEH 2 uM, 37 C 1 h, yeast tRNA and sperm DNA, BT474 all positive, binding correlates with HER2 expression, variant of HER2 aptamer (34 nt)), the binding result is listed as “binds”.

In data set [6], “AGCCGCGAGGGGAGGGAUAGGGUAGGGCGCGGCU [HER2 aptamer (34 nt)]” showed a Kd of 3.49 nM. For the same sequence, the “functional effect of the aptamer” value in data set [5] (2 uM, 72 h: viability reduced 40% in SKBR3 and 35% in BT474) was “active”.
